Measurements: article PMC11172124 (Cells, 2024)
These are yes or no findings as the source states them, for the method shown. Some binding calls cover weakened binding; strength is not graded here.

Protein sequences, listed by entry. Tags and fused reporters are not part of them.
UniProt O94901: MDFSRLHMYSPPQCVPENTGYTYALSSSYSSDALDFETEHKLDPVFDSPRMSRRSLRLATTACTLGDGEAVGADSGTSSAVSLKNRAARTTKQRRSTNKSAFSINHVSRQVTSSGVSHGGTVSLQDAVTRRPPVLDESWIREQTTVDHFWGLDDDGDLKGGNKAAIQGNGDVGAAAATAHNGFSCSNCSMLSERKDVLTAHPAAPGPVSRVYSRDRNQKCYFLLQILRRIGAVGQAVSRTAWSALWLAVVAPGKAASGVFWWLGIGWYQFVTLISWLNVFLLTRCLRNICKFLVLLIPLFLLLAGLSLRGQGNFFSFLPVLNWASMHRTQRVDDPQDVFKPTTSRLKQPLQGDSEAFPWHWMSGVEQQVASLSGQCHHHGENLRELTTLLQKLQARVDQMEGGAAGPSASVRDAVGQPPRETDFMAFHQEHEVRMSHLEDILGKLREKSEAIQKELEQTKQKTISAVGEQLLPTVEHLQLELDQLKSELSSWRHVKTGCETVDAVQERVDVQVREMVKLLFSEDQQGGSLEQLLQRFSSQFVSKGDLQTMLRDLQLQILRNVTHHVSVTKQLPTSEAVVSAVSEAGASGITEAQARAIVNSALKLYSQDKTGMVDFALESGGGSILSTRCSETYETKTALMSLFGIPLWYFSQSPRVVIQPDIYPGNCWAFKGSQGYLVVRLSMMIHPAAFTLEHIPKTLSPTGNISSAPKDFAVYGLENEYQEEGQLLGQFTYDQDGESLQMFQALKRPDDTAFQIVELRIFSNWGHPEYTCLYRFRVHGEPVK
UniProt P20700: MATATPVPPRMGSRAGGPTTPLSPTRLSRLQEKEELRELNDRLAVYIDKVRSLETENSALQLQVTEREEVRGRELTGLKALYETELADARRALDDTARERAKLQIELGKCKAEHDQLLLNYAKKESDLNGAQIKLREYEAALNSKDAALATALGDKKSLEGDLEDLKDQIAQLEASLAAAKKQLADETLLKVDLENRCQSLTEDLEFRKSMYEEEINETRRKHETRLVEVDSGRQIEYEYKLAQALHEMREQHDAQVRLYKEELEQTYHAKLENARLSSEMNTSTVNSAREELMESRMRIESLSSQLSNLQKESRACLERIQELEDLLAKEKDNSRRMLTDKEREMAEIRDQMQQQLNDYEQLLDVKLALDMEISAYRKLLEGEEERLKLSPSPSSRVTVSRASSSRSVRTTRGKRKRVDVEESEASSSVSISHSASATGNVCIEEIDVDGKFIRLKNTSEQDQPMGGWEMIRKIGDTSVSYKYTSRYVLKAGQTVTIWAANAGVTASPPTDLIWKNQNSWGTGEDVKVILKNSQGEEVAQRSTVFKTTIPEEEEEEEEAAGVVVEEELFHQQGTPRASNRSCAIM

Experiments:
[1] = molecular target: SUN1 (human (endogenous in MCF10A and MDA-MB-231)) (UniProt O94901); assay: non-reducing SDS-PAGE with Western blot; MCF10A cell lysate with 20 mM N-ethylmaleimide, without β-mercaptoethanol, 4 min at 50 °C, 4–12% gradient gel; shows only disulphide-linked species
[2] = molecular target: SUN1 (human (endogenous in MCF10A and MDA-MB-231)) (UniProt O94901); assay: non-reducing SDS-PAGE with Western blot; MDA-MB-231 cell lysate with 20 mM N-ethylmaleimide, without β-mercaptoethanol, 4 min at 50 °C, 4–12% gradient gel; shows only disulphide-linked species
[3] = molecular target: Lamin B1 (human (endogenous in MCF10A and MDA-MB-231)) (UniProt P20700); assay: as above
[4] = molecular target: SUN2 (human (endogenous in MCF10A and MDA-MB-231)) (UniProt Q9UH99); assay: as above

For SUN1 (from UniProt O94901 1-785), the binding [1] was “binds” and the binding [2] was “binds”.

Lamin B1 (from UniProt P20700 1-586) was tested, and the binding [3] was “no binding (condition: in MDA-MB-231 cell lysate)”.

B1: SUN2 (natural protein, UniProt Q9UH99-2 1-738, looked up)
chain: MSRRSQRLTRYSQGDDDGSSSSGGSSVAGSQSTLFKDSPLRTLKRKSSNMKRLSPAPQLGPSSDAHTSYYSESLVHESWFPPRSSLEELHGDANWGEDLRVRRRRGTGGSESSRASGLVGRKATEDFLGSSSGYSSEDDYVEDSEGRGSKVTETEPVSSFPAGYSDVDQQSSSSRLRSAVSRAGSLLWMVATSPGRLFRLLYWWAGTTWYRLTTAASLLDVFVLTRRFSSLKTFLWFLLPLLLLTCLTYGAWYFYPYGLQTFHPALVSWWAAKDSRRPDEGWEARDSSPHFQAEQRVMSRVHSLERRLEALAAEFSSNWQKEAMRLERLELRQGAPGQGGGGGLSHEDTLALLEGLVSRREAALKEDFRRETAARIQEELSALRAEHQQDSEDLFKKIVRASQESEARIQQLKSEWQSMTQESFQESSVKELRRLEDQLAGLQQELAALALKQSSVAEEVGLLPQQIQAVRDDVESQFPAWISQFLARGGGGRVGLLQREEMQAQLRELESKILTHVAEMQGKSAREAAASLSLTLQKEGVIGVTEEQVHHIVKQALQRYSEDRIGLADYALESGGASVISTRCSETYETKTALLSLFGIPLWYHSQSPRVILQPDVHPGNCWAFQGPQGFAVVRLSARIRPTAVTLEHVPKALSPNSTISSAPKDFAIFGFDEDLQQEGTLLGKFTYDQDGEPIQTFHFQAPTMATYQVVELRILTNWGHPEYTCIYRFRVHGEPAH
notes: SUN2, human, endogenous in MCF10A and MDA-MB-231 cells; detected as a ~80 kDa monomer; Free cysteines were alkylated with 20 mM N-ethylmaleimide when the lysate was made; Which isoform the cells express was not determined; also called SUN-domain protein SUN2
For B1, the binding [4] was “no binding (condition: in MDA-MB-231 cell lysate)”.
